Experimental data as given in patent US7833983B2, “Analytical method and kit thereof” (Phadia, AB, priority 2003, dated 2010).

System: anti-Sm antibodies
Assay: Correlation study: anti-S33 ELISA versus commercially available anti-Sm antibody tests
Type: binding, human
Conditions: 50 SLE sera and 100 controls
Procedure: Randomly selected SLE sera (n=50) and various controls (n=100) were tested using the commercially available anti-Sm antibody tests from different suppliers (Sm test A—Sm Test D) and the results were compared to the findings of the anti-S33 ELISA test.

With “AARG sdR GRGMGRGNIF (AARGRGRGMGRGNIF; symmetric dimethylarginine at 112; optional C-terminal Cys) [S33, SmD3 aa 108-122 mimotope peptide with a single symmetrical dimethylarginine at position 112; ELISA version with additional C-terminal Cys]” as the substance, how does the sensitivity read?
Its sensitivity is 12%.

And the specificity?
The specificity was 100%.
